Results as given in the supplement of paper PMC11006884.
Only a part is listed here, and it is no random draw.

Protein sequences, listed by entry. Tags and fused reporters are not part of them. Lines headed by an entry give the natural chain unless they say otherwise; changes in a name come on top.
UniProt Q96EM0: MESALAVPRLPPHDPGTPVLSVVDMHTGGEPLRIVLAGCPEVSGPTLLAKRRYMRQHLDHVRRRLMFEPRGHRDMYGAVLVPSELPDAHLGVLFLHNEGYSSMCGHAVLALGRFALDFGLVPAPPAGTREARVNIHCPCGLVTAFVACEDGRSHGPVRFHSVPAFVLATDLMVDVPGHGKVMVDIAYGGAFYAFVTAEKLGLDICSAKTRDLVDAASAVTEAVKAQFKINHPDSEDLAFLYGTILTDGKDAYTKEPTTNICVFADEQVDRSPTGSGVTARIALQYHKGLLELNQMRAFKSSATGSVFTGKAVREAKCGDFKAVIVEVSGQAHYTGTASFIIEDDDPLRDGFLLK
UniProt Q92841: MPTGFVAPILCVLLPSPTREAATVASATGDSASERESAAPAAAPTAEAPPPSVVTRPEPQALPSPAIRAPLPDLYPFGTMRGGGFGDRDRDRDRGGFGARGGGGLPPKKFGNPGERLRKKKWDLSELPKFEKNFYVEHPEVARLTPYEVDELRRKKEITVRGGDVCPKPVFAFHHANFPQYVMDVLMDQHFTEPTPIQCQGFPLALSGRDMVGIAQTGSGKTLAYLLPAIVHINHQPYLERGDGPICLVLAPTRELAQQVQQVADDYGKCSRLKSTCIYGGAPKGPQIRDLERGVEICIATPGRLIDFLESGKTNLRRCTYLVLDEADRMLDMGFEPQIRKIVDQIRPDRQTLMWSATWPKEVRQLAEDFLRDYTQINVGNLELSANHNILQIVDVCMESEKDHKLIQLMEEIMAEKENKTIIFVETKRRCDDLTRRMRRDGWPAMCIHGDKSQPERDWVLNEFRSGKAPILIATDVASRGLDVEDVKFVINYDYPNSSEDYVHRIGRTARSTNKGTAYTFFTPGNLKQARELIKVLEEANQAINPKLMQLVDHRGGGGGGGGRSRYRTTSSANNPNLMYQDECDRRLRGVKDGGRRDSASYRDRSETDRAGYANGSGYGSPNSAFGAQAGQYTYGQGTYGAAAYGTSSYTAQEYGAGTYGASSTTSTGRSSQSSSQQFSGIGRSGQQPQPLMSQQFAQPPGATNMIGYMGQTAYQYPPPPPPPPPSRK
UniProt Q96B54: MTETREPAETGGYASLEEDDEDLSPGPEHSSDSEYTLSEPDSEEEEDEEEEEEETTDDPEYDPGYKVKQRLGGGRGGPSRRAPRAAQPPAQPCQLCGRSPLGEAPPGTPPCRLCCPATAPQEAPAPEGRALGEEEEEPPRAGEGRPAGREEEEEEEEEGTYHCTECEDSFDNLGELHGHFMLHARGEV
UniProt Q969T4: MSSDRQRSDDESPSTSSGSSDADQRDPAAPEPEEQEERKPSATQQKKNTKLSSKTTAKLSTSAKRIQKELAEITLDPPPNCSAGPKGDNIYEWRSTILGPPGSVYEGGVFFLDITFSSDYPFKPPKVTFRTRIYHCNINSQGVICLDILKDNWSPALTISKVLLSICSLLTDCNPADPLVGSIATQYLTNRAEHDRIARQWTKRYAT
UniProt Q92538, whole entry, looked up: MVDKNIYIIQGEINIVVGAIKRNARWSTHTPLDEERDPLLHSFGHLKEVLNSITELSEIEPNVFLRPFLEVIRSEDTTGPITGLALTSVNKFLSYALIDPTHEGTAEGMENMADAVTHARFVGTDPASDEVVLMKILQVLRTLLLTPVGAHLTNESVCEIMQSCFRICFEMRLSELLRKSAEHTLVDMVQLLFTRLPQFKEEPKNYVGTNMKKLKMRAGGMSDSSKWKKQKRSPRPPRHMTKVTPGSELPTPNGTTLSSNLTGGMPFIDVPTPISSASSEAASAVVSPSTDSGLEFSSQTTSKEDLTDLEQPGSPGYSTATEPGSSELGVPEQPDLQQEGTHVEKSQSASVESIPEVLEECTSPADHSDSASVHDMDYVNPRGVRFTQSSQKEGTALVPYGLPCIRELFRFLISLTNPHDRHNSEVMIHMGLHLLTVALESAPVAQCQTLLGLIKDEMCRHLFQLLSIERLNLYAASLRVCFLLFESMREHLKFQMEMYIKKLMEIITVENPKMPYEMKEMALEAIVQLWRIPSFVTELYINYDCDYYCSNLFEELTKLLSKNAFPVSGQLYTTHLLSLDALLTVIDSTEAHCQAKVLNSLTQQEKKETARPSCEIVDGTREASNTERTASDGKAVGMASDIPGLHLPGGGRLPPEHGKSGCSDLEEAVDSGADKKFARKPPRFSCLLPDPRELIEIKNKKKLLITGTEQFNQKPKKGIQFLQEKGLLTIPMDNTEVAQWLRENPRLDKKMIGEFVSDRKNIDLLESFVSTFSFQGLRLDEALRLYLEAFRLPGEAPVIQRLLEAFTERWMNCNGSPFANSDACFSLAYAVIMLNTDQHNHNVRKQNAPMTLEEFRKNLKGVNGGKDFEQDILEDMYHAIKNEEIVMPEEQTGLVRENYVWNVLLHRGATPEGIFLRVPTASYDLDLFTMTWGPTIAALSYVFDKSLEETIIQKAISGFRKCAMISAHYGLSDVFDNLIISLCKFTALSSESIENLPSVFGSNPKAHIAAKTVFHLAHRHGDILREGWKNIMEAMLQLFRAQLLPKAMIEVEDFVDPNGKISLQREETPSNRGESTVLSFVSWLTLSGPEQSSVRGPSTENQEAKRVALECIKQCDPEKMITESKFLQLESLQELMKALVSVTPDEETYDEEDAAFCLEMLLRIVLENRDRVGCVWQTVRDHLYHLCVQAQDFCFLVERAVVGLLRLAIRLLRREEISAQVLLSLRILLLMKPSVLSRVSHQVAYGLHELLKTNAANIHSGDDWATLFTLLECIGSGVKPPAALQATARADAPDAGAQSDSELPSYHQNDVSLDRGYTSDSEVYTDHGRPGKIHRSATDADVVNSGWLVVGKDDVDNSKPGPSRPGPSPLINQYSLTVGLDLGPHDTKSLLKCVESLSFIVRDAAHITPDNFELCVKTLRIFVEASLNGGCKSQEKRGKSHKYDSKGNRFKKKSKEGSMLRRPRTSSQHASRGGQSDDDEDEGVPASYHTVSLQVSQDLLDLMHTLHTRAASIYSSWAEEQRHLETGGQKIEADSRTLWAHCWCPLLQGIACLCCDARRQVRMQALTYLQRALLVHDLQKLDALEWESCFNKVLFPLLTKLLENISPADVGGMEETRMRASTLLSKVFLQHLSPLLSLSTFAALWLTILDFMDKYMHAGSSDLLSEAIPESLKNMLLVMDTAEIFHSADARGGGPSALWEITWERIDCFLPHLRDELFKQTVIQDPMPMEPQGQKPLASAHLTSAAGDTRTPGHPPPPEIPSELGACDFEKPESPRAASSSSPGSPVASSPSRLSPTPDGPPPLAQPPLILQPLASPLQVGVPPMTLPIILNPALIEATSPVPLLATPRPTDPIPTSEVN
UniProt Q92797: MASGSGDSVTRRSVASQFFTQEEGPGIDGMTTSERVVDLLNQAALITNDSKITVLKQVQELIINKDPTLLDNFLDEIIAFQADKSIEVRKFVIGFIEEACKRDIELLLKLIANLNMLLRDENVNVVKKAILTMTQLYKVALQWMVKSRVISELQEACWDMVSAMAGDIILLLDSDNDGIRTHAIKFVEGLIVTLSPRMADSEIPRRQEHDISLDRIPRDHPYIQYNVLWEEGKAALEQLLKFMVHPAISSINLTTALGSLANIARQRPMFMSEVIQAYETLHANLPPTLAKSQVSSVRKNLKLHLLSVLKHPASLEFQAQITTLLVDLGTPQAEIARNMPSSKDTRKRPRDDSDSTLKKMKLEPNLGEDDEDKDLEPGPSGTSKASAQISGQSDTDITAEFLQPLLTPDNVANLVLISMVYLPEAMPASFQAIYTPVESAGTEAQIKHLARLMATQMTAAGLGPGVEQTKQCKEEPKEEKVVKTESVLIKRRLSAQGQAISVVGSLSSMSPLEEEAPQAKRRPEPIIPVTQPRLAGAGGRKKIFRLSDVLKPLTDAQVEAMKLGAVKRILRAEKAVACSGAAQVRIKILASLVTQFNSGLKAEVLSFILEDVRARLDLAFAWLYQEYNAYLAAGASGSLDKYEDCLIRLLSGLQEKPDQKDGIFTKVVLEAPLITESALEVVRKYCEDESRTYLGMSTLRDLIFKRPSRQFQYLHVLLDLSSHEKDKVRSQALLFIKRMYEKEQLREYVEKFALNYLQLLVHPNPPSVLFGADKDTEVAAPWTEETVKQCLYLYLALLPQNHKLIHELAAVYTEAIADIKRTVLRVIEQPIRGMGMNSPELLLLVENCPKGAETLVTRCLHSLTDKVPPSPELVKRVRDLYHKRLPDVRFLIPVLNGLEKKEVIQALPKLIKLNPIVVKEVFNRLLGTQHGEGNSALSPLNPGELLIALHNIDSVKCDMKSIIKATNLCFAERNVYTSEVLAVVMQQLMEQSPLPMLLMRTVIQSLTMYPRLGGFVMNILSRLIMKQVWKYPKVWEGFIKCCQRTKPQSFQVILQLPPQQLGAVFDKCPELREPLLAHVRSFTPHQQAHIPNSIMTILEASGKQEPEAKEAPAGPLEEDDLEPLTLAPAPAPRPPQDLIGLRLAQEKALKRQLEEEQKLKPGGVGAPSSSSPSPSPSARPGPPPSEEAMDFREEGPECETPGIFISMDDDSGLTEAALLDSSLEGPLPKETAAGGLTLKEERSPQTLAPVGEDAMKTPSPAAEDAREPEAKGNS
UniProt Q96B26, whole entry: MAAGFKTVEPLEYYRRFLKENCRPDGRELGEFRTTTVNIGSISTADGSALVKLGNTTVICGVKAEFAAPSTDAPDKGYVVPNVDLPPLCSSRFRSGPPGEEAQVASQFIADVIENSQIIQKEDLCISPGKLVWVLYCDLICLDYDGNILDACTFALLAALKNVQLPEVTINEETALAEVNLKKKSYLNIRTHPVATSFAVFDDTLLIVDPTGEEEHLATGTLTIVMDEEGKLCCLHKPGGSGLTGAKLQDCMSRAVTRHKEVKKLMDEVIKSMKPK
UniProt Q92698: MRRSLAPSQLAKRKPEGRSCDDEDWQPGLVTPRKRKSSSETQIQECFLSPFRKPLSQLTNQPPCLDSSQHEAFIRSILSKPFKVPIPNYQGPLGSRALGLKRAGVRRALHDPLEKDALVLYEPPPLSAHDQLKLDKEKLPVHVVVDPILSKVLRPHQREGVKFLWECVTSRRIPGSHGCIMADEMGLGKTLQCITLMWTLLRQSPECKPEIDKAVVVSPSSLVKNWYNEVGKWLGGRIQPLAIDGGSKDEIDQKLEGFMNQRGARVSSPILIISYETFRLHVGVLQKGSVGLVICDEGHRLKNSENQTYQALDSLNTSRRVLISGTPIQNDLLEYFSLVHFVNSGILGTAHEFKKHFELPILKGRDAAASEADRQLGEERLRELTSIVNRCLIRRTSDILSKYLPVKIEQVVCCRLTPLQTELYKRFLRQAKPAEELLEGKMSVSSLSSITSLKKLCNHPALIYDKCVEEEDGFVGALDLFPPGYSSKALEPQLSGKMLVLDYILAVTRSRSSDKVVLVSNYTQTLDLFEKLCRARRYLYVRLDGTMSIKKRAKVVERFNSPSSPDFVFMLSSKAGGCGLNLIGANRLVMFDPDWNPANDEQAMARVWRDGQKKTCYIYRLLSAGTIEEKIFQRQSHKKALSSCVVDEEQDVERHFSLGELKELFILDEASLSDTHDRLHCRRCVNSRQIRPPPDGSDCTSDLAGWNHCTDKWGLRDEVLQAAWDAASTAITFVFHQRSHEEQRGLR
UniProt Q92688: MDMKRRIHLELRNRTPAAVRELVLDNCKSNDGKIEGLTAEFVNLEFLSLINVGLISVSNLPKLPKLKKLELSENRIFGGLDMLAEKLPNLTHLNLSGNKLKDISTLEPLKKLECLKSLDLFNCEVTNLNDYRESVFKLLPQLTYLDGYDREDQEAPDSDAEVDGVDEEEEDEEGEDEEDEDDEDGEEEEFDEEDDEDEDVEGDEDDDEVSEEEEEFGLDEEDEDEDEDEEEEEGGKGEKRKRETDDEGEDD
UniProt Q969Z3: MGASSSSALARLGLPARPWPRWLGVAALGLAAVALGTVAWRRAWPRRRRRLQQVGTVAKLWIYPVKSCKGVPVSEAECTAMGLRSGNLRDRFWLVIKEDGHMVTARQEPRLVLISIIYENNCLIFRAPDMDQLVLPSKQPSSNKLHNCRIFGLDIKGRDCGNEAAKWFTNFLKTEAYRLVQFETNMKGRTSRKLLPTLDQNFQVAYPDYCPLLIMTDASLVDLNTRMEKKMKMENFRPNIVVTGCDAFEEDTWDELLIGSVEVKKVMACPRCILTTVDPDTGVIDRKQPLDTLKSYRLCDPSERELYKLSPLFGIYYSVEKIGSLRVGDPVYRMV
UniProt Q96AB3: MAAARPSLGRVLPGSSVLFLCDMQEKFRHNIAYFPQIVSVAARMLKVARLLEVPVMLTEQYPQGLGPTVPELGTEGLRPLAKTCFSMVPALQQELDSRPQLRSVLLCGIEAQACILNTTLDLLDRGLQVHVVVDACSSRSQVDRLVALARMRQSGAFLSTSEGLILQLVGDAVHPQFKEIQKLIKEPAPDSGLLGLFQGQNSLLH

Compound: COC(=O)C#Cc1ccccc1 [methyl 3-phenylpropiolate]
Assay: log2 ratio of iodoacetamide-alkyne labeling of the cysteine site, DMSO over compound (competition); higher = stronger covalent engagement of the cysteine by the compound, active = 1 or more
Settings: 500 µM; treatment time 1 h; system: HEK293T cell lysate
Procedure, shortened: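 HEK293T lysate (2 mg/mL) was treated with DMSO or electrophile (500 µM, 1 h, ambient temperature), then iodoacetamide alkyne (1 h), clicked to sCIP-TMT reagents, pooled, trypsin-digested overnight at 37 °C, streptavidin-enriched and acid-eluted. Peptides were run on Orbitrap Eclipse LC-MS/MS with FAIMS and quantified in FragPipe. The log2 competition ratio per cysteine is mean control-channel over mean compound-channel reporter intensity. Duplicate channels and three replicates were used, and cysteines quantified in only one replicate were excluded.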

| Target | log2 ratio of iodoacetamide-alkyne labeling |
| --- | --- |
| NUP205 C1715 (UniProt Q92621) | inactive: 0.231 |
| GPKOW C394 (UniProt Q92917) | inactive: -0.0148 |
| MRPL38 C143 (UniProt Q96DV4) | inactive: 0.2 |
| UniProt Q96EM0_C39 | inactive: 0.492 |
| UniProt Q93015_C250 | inactive: 0.513 |
| UPF1 C657 (UniProt Q92900) | inactive: 0.234 |
| TONSL C283 (UniProt Q96HA7) | inactive: 0.128 |
| NDRG1 C272 (UniProt Q92597) | inactive: 0.208 |
| USP9X C1061 (UniProt Q93008) | inactive: 0.0678 |
| UniProt Q92841_C298 | inactive: 0.188 |
| ZNF428 C93 (UniProt Q96B54) | inactive: 0.191 |
| MED12 C83 (UniProt Q93074) | inactive: 0.457 |
| UBE2E3 C81 (UniProt Q969T4) | inactive: 0.412 |
| GBF1 C1766 (UniProt Q92538) | inactive: 0.302 |
| TTC28 C502 (UniProt Q96AY4) | inactive: 0.222 |
| EDC3 C477 (UniProt Q96F86) | inactive: 0.0883 |
| AKAP1 C64 (UniProt Q92667) | inactive: 0.518 |
| EDC3 C137 (UniProt Q96F86) | active: 1.09 |
| SYMPK C859 (UniProt Q92797) | inactive: 0.383 |

| Target | log2 ratio of iodoacetamide-alkyne labeling |
| --- | --- |
| EXOSC8 C89 (UniProt Q96B26) | inactive: -0.0354 |
| UniProt Q92615_C654 | inactive: 0.572 |
| TAF15 C360 (UniProt Q92804) | inactive: 0.0291 |
| RAD54L C20 (UniProt Q92698) | inactive: 0.453 |
| POM121 C307 (UniProt Q96HA1) | inactive: 0.328 |
| RNF34 C65 (UniProt Q969K3) | inactive: 0.0941 |
| DLG3 C519 (UniProt Q92796) | inactive: 0.214 |
| NT5C3B C56 (UniProt Q969T7) | inactive: 0.535 |
| ANP32B C27 (UniProt Q92688) | inactive: 0.262 |
| TMCO6 C57 (UniProt Q96DC7) | inactive: 0.394 |
| UniProt Q969Z3_C272 | inactive: 0.574 |
| TBRG4 C246 (UniProt Q969Z0) | inactive: 0.063 |
| TUBGCP3 C274 (UniProt Q96CW5) | inactive: 0.436 |
| GBF1 C1272 (UniProt Q92538) | inactive: 0.278 |
| USP9X C1212 (UniProt Q93008) | inactive: 0.4 |
| ISOC2 C84 (UniProt Q96AB3) | inactive: 0.179 |
| RPL36AL C88 (UniProt Q969Q0) | inactive: 0.698 |
| RABGGTA C354 (UniProt Q92696) | inactive: 0.131 |
| UniProt Q92841_C270 | inactive: 0.303 |

Quoted at random: two records from the list, in no set order.

| Target | log2 ratio of iodoacetamide-alkyne labeling |
| --- | --- |
| RABGGTA C354 (UniProt Q92696) | inactive: 0.131 |
| RNF34 C65 (UniProt Q969K3) | inactive: 0.0941 |
